Consider 32 targets from the supplement of paper PMC10849652.

By UniProt entry, the sequences of proteins in these tests, tags left out. Where a name states a change or a piece, a line headed by the entry shows the natural chain unless it says otherwise.
UniProt Q69YH5: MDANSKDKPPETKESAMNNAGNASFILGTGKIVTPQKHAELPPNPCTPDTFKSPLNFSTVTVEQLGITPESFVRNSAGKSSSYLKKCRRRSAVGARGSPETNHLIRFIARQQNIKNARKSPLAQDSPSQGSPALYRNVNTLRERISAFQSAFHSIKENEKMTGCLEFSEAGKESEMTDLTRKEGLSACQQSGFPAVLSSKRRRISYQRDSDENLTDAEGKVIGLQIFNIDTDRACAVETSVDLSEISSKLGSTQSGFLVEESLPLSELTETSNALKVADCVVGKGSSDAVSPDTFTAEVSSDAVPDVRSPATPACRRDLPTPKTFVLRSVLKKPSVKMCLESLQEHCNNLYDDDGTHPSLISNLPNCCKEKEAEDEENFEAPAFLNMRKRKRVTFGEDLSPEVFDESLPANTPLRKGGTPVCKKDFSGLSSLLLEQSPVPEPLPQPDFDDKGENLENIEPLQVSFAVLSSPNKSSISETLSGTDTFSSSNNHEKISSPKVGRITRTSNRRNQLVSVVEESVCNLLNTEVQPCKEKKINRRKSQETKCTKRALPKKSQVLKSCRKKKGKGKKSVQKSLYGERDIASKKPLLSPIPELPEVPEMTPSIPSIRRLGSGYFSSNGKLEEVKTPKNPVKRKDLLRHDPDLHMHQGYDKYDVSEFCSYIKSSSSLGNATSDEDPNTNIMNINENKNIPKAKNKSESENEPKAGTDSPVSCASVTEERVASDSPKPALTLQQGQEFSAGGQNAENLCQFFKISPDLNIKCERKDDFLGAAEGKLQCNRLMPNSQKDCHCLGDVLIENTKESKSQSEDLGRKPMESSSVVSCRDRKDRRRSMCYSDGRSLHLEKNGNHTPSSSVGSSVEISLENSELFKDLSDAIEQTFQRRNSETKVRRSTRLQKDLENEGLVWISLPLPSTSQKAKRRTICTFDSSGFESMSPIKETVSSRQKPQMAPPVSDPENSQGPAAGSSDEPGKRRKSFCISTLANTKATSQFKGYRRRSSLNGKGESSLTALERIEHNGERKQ
UniProt Q71F23: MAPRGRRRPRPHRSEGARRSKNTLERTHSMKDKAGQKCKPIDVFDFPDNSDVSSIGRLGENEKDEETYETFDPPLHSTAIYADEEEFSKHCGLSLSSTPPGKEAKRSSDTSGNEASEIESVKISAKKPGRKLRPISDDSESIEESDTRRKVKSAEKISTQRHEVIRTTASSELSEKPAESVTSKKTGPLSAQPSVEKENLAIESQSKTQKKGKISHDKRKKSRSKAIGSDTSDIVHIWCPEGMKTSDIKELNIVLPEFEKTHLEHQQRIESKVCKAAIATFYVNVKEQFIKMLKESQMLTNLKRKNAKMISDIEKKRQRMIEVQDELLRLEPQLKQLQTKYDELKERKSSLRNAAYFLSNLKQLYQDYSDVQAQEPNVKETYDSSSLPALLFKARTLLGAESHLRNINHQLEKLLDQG
UniProt Q9C0F1: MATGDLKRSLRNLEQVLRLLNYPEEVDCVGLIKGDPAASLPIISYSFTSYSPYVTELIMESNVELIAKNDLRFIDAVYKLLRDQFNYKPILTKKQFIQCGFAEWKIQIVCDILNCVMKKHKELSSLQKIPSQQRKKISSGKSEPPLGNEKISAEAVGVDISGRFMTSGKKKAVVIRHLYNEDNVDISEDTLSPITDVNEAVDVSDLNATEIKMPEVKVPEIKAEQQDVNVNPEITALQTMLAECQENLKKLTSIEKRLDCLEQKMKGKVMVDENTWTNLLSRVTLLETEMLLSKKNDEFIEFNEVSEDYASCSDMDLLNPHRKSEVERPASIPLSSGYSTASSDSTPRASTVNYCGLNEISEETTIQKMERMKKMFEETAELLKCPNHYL
UniProt Q16543: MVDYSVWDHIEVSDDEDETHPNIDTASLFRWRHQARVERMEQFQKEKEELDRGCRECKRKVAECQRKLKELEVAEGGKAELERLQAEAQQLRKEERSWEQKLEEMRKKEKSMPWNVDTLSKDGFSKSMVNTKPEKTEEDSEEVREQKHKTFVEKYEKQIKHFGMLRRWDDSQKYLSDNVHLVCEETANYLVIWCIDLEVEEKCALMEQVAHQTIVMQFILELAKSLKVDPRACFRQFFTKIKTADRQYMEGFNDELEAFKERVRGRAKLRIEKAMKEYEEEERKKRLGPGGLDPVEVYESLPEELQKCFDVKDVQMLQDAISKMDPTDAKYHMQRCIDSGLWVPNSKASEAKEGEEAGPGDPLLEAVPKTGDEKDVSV
UniProt Q9Y5P4: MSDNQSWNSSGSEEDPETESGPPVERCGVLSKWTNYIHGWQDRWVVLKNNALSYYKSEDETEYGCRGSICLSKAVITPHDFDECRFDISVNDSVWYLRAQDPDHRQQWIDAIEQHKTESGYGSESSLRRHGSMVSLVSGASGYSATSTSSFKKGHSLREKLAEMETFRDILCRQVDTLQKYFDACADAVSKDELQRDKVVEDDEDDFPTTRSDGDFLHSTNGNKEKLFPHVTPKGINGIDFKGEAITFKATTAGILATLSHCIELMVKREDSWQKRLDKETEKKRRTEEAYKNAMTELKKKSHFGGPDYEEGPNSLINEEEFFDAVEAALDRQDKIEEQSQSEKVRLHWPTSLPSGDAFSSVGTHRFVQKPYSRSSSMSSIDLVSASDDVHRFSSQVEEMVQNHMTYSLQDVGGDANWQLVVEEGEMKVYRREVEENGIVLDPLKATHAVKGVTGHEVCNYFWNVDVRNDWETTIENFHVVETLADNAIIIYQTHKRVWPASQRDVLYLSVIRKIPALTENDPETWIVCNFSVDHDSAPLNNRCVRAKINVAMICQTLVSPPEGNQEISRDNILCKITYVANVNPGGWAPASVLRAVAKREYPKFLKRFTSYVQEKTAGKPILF
UniProt Q8IWY9: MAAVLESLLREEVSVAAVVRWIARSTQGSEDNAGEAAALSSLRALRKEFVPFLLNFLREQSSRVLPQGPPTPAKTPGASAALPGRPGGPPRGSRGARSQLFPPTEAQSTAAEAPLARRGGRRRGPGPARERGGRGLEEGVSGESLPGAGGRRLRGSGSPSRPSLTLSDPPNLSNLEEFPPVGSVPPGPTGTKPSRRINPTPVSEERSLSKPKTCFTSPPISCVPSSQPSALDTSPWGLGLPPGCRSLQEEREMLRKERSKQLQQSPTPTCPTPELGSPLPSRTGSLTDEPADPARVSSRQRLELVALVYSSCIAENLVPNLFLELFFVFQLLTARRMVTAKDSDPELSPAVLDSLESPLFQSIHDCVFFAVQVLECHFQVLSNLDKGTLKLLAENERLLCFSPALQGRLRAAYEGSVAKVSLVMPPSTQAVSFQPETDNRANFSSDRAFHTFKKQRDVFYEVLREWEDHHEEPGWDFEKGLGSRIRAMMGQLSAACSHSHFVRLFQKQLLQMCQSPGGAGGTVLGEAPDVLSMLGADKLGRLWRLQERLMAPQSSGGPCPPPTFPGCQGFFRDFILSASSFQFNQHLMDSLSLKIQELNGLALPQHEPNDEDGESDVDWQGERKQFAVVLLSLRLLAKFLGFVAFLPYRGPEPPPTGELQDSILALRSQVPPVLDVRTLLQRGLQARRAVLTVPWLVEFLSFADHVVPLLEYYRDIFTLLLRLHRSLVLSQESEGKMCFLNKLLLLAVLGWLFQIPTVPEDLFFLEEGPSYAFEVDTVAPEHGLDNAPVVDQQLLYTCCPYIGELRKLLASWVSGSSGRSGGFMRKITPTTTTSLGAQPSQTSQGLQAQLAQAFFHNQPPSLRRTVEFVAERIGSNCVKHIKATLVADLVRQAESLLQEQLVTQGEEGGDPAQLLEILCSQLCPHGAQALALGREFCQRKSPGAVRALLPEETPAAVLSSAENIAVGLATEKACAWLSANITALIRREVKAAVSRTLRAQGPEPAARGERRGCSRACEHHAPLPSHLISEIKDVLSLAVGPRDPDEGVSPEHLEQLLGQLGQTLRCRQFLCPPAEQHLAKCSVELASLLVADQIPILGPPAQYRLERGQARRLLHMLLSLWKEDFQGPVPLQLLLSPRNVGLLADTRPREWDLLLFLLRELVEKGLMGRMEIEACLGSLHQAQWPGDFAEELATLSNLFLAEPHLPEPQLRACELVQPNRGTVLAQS
UniProt O00748: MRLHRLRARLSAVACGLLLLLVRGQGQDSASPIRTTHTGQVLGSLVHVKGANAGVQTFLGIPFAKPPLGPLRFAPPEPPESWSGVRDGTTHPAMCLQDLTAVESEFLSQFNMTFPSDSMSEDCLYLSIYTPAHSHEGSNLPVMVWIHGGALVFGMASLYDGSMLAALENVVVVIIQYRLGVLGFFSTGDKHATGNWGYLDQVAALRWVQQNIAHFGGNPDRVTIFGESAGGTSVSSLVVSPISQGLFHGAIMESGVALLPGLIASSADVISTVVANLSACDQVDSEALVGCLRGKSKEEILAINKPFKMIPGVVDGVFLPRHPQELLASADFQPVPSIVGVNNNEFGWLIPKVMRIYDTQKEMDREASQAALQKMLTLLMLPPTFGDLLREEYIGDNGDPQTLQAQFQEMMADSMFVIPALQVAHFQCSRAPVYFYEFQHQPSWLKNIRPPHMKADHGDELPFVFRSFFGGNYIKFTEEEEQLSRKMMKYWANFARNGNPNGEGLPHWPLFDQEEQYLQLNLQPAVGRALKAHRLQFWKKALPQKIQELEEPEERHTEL
UniProt Q8WUX2: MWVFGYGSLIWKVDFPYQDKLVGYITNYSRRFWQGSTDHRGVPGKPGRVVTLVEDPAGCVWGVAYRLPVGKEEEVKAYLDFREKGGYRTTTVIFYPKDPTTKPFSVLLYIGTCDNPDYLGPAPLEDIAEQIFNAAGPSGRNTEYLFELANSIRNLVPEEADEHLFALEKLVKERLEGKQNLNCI
UniProt P50613: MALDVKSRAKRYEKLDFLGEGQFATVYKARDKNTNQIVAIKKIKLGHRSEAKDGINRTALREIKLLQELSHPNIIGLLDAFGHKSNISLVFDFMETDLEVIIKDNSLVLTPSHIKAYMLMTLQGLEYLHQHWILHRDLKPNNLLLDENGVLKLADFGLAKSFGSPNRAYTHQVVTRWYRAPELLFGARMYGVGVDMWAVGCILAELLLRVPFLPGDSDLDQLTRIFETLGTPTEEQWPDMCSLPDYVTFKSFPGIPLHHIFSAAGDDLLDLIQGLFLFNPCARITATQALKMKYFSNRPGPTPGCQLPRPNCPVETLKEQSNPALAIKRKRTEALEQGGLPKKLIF
UniProt Q96FF9: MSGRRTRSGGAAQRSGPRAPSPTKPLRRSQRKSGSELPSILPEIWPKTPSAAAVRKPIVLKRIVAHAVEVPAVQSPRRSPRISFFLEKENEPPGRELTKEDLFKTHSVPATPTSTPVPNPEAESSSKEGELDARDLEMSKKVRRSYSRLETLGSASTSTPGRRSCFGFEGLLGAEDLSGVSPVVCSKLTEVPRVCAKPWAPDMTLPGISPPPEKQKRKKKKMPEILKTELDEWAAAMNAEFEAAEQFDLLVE
UniProt Q6ZMG9: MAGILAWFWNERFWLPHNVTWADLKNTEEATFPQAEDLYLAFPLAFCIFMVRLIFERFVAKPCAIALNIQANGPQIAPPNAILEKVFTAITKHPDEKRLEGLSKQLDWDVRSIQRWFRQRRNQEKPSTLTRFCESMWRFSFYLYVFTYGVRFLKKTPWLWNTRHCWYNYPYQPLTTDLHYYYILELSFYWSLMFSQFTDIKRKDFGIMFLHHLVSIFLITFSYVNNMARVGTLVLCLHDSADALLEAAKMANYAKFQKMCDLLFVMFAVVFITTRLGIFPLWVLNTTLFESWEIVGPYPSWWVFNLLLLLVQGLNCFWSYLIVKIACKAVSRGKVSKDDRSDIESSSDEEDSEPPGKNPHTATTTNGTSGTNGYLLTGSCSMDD
UniProt P57076: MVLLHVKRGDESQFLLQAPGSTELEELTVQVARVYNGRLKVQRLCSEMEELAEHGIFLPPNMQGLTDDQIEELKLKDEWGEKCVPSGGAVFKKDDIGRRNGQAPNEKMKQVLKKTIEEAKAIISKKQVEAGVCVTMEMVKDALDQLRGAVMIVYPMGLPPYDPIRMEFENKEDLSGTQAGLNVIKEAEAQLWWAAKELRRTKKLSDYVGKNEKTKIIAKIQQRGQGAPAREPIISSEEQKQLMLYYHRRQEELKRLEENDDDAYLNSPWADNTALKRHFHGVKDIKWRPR
UniProt O95319: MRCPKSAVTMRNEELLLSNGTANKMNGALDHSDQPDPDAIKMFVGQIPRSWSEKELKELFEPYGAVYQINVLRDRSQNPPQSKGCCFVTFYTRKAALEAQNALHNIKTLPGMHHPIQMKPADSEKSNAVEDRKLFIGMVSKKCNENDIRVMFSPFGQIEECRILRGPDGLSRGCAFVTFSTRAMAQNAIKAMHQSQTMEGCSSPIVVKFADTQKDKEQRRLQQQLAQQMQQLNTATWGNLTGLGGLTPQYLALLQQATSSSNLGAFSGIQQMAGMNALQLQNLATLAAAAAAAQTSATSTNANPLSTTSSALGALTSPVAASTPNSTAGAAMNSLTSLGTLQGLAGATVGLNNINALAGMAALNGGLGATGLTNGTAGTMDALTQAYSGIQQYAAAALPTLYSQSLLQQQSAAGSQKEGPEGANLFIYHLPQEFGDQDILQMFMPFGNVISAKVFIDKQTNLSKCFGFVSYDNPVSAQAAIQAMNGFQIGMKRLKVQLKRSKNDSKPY

The other results are listed elsewhere or left out.

Compound in one assay: CS(=O)(=O)CCNCc1ccc(-c2ccc3ncnc(Nc4ccc(OCc5cccc(F)c5)c(Cl)c4)c3c2)o1 [lapatinib]
Kind of assay: log2 fold change, soluble protein after heating vs DMSO (PISA); higher = thermal stabilisation; K562 lysate, 10 uM; active = over 0.2 and 3.5 SD of the protein, either way, in both replicates (recomputed). In a few lines: (§1)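 A 30 min treatment with 10 μM compound was applied to crude K562 extract at 1 mg/mL protein in PBS pH 7.4 with 1 mM MgCl2. Heating for 3 min spanned 48°C-58°C, after which aliquots were pooled, adjusted to 0.5% NP-40 at 4°C and spun at 21,000xg for 90 min. TMTpro 16plex LC-MS/MS of the supernatant, with channel sums equalised, gave values recorded as log-two fold change in thermal stability against solvent controls, from duplicates.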
Take CDC42EP1 (UniProt Q00587): the log2 fold change is inactive: -0.023.

Regarding CDCA2 (UniProt Q69YH5), the log2 fold change is inactive: -0.008.

Regarding CEP192 (UniProt Q8TEP8), the log2 fold change is inactive: -0.043.

As to CEP85 isoform 2 (UniProt Q6P2H3), the log2 fold change is inactive: 0.011.

Take CDC34 (UniProt P49427): the log2 fold change was inactive: -0.031.

With CENPU (UniProt Q71F23), the log2 fold change was inactive: 0.038.

For CENPK (UniProt Q9BS16), the log2 fold change is inactive: -0.145.

As for CDK1 (UniProt P06493), the log2 fold change is inactive: -0.012.

As to CEP44 (UniProt Q9C0F1), the log2 fold change was inactive: 0.029.

With CDC42BPA isoform 6 (UniProt Q5VT25), the log2 fold change is inactive: -0.029.

Regarding CEP76 (UniProt Q8TAP6), the log2 fold change is inactive: -0.031.

Consider CEP120 (UniProt Q8N960), for which the log2 fold change was inactive: -0.076.

As for CDC45 isoform 3 (UniProt O75419), the log2 fold change is inactive: -0.036.

For the target CDC37 (UniProt Q16543), the log2 fold change was inactive: 0.012.

On to CEP97 (UniProt Q8IW35), for which the log2 fold change was inactive: 0.019.

Take CDC5L (UniProt Q99459): the log2 fold change is inactive: 0.004.

On to CDR2 (UniProt Q01850), for which the log2 fold change is inactive: -0.04.

Consider CFAP36 (UniProt Q96G28), for which the log2 fold change was inactive: -0.015.

As to CERT isoform 3 (UniProt Q9Y5P4), the log2 fold change was inactive: -0.017.

Take CDAN1 (UniProt Q8IWY9): the log2 fold change is inactive: 0.009.

In the case of CES2 isoform 4 (UniProt O00748), the log2 fold change was inactive: 0.027.

Consider CDK5 (UniProt Q00535), for which the log2 fold change was inactive: -0.094.

Regarding CHAC2 (UniProt Q8WUX2), the log2 fold change is inactive: 0.038.

Turning to CDK12 (UniProt Q9NYV4), the log2 fold change is inactive: -0.022.

CDC73 (UniProt Q6P1J9): the log2 fold change is inactive: 0.01.

Take CDK6 (UniProt Q00534): the log2 fold change is inactive: -0.015.

Consider CDK7 (UniProt P50613), for which the log2 fold change is inactive: -0.007.

As for CDCA5 (UniProt Q96FF9), the log2 fold change is inactive: 0.083.

With CERS6 isoform 2 (UniProt Q6ZMG9), the log2 fold change is inactive: -0.037.

For CFAP298 (UniProt P57076), the log2 fold change was inactive: -0.007.

For the target CDK5RAP3 isoform 4 (UniProt Q96JB5), the log2 fold change is inactive: -0.013.

Take CELF2 isoform 3 (UniProt O95319): the log2 fold change was inactive: 0.039.

Compound in the next assay: CS(=O)(=O)N1CCN(Cc2cc3nc(-c4cccc5[nH]ncc45)nc(N4CCOCC4)c3s2)CC1 [pictilisib]
The description is as above. In a few lines:
as §1
Take CDC42EP1 (UniProt Q00587): the log2 fold change was inactive: 0.053.

Take CDCA2 (UniProt Q69YH5): the log2 fold change was inactive: -0.001.

In the case of CEP192 (UniProt Q8TEP8), the log2 fold change was inactive: -0.064.

As to CEP85 isoform 2 (UniProt Q6P2H3), the log2 fold change is inactive: -0.029.

CDC34 (UniProt P49427): the log2 fold change is inactive: -0.023.

As for CENPU (UniProt Q71F23), the log2 fold change is inactive: -0.005.

With CENPK (UniProt Q9BS16), the log2 fold change is inactive: -0.062.

For the target CDK1 (UniProt P06493), the log2 fold change is inactive: -0.021.

CEP44 (UniProt Q9C0F1): the log2 fold change is inactive: -0.007.

On to CDC42BPA isoform 6 (UniProt Q5VT25), for which the log2 fold change was inactive: -0.041.

With CEP76 (UniProt Q8TAP6), the log2 fold change is inactive: -0.073.

In the case of CEP120 (UniProt Q8N960), the log2 fold change was inactive: -0.007.

As for CDC45 isoform 3 (UniProt O75419), the log2 fold change is inactive: -0.014.

In the case of CDC37 (UniProt Q16543), the log2 fold change was inactive: 0.01.

Take CEP97 (UniProt Q8IW35): the log2 fold change is inactive: 0.019.

Take CDC5L (UniProt Q99459): the log2 fold change was inactive: 0.003.

Turning to CDR2 (UniProt Q01850), the log2 fold change was inactive: -0.018.

Regarding CFAP36 (UniProt Q96G28), the log2 fold change was inactive: -0.025.

Consider CERT isoform 3 (UniProt Q9Y5P4), for which the log2 fold change was inactive: -0.008.

On to CDAN1 (UniProt Q8IWY9), for which the log2 fold change is inactive: -0.05.

On to CES2 isoform 4 (UniProt O00748), for which the log2 fold change is inactive: 0.32.

For CDK5 (UniProt Q00535), the log2 fold change is inactive: 0.095.

In the case of CHAC2 (UniProt Q8WUX2), the log2 fold change was inactive: -0.011.

As to CDK12 (UniProt Q9NYV4), the log2 fold change was inactive: 0.003.

In the case of CDC73 (UniProt Q6P1J9), the log2 fold change was inactive: -0.008.

As to CDK6 (UniProt Q00534), the log2 fold change is inactive: -0.007.

Consider CDK7 (UniProt P50613), for which the log2 fold change is inactive: -0.017.

Regarding CDCA5 (UniProt Q96FF9), the log2 fold change was inactive: 0.066.

Consider CERS6 isoform 2 (UniProt Q6ZMG9), for which the log2 fold change was inactive: 0.

As for CFAP298 (UniProt P57076), the log2 fold change is inactive: -0.019.

As to CDK5RAP3 isoform 4 (UniProt Q96JB5), the log2 fold change was inactive: -0.028.

As to CELF2 isoform 3 (UniProt O95319), the log2 fold change is inactive: 0.032.

Compound in another assay: C[C@@H](Oc1cc(-c2cnn(C3CCNCC3)c2)cnc1N)c1c(Cl)ccc(F)c1Cl [crizotinib]
Described as above. An outline of the steps:
as §1
Consider CDC42EP1 (UniProt Q00587), for which the log2 fold change is inactive: -0.014.

Turning to CDCA2 (UniProt Q69YH5), the log2 fold change is inactive: 0.002.

Take CEP192 (UniProt Q8TEP8): the log2 fold change is inactive: 0.046.

CEP85 isoform 2 (UniProt Q6P2H3): the log2 fold change was inactive: -0.005.

With CDC34 (UniProt P49427), the log2 fold change was inactive: -0.01.

As to CENPU (UniProt Q71F23), the log2 fold change was inactive: -0.026.

Take CENPK (UniProt Q9BS16): the log2 fold change was inactive: 0.02.

For CDK1 (UniProt P06493), the log2 fold change was inactive: -0.041.

In the case of CEP44 (UniProt Q9C0F1), the log2 fold change was inactive: 0.027.

CDC42BPA isoform 6 (UniProt Q5VT25): the log2 fold change was inactive: -0.061.

As for CEP76 (UniProt Q8TAP6), the log2 fold change is inactive: -0.106.

CEP120 (UniProt Q8N960): the log2 fold change was inactive: -0.034.

On to CDC45 isoform 3 (UniProt O75419), for which the log2 fold change was inactive: -0.009.

CDC37 (UniProt Q16543): the log2 fold change was inactive: 0.05.

In the case of CEP97 (UniProt Q8IW35), the log2 fold change is inactive: -0.081.

CDC5L (UniProt Q99459): the log2 fold change was inactive: -0.02.

With CDR2 (UniProt Q01850), the log2 fold change was inactive: -0.012.

Turning to CFAP36 (UniProt Q96G28), the log2 fold change is inactive: 0.05.

CERT isoform 3 (UniProt Q9Y5P4): the log2 fold change was inactive: 0.015.

On to CDAN1 (UniProt Q8IWY9), for which the log2 fold change was inactive: -0.038.

With CES2 isoform 4 (UniProt O00748), the log2 fold change is inactive: 0.079.

Regarding CDK5 (UniProt Q00535), the log2 fold change was inactive: -0.031.

In the case of CHAC2 (UniProt Q8WUX2), the log2 fold change was inactive: 0.003.

Regarding CDK12 (UniProt Q9NYV4), the log2 fold change is inactive: -0.019.

In the case of CDC73 (UniProt Q6P1J9), the log2 fold change was inactive: -0.005.

Consider CDK6 (UniProt Q00534), for which the log2 fold change was inactive: 0.019.

Turning to CDK7 (UniProt P50613), the log2 fold change is inactive: -0.014.

On to CDCA5 (UniProt Q96FF9), for which the log2 fold change is inactive: -0.028.

On to CERS6 isoform 2 (UniProt Q6ZMG9), for which the log2 fold change is inactive: 0.058.

With CFAP298 (UniProt P57076), the log2 fold change was inactive: -0.035.

As to CDK5RAP3 isoform 4 (UniProt Q96JB5), the log2 fold change is inactive: -0.054.

CELF2 isoform 3 (UniProt O95319): the log2 fold change was inactive: 0.072.
